Earlier results, collected in patent US20020086065A1, “Methods and compositions for the benefit of those suffering from polycystic ovary syndrome with chromium complexes” (priority 2000, published 2002).
At least one structure is not confirmed: it was looked up by name or label, or the drawing left a doubt.

Assays:
[1] = tested on: obese, hyperandrogenic women with PCOS and IGT; settings: 13 women, 400 mg troglitazone a day for 12 weeks; cited from earlier work
[2] = tested on: obese, hyperandrogenic women with PCOS; settings: cited from earlier work
[3] = 25 women, troglitazone 200 mg or 400 mg a day, within a month

Q: Which Fasting glucose levels [1] does the source give for `Cc1c(C)c2c(c(C)c1O)CCC(C)(COc1ccc(CC3SC(=O)NC3=O)cc1)O2` (stereo not drawn) [troglitazone] here?
A: declined significantly

Q: What about the androgenic hormones [1] of the same compound?
A: decreased

Q: And the gonadotropins [1]?
A: without any change

Q: And the “hemoglobin A-1C” value [1]?
A: reduced

Q: And the insulin sensitivity [1]?
A: improved

Q: What about the “stimulated 17-hydroxyprogesterone” value [1] of the same compound?
A: decreased

Q: What about the two-hour glucose levels [1] of the same compound?
A: declined significantly

Q: And the BMI [2, 3]?
A: unchanged

Q: What about the estradiol [2, 3] of the same compound?
A: decreased

Q: What about the estrone [2, 3] of the same compound?
A: decreased

Q: What about the free testosterone [2, 3] of the same compound?
A: decreased

Q: And the insulin sensitivity [2, 3]?
A: increased

Q: What about the FSH levels ([2]; those given 400 mg per day) of the same compound?
A: unchanged

Q: And the LH ([2]; those given 400 mg per day)?
A: decreased

Q: What about the androstenedione ([2]; those given 400 mg per day) of the same compound?
A: decreased

Q: What about the ovulation ([2]; those given 400 mg per day) of the same compound?
A: two women ovulated

Q: What about the “sex hormone-binding globulin (SHBG)” value ([2]; those given 400 mg per day) of the same compound?
A: increased

Q: What about the menses ([2]; troglitazone 200 mg or 400 mg a day, as early as one month later) of the same compound?
A: regular menses
